Data: the supplement of paper PMC12889115
The other results are listed elsewhere or left out. These are raw signals, not scaled to a control.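 In the initial screen, polymyxin B was used at a concentration that permeabilizes Salmonella's outer membrane but not its inner membrane. Maximum growth was set by DMSO wells with or without polymyxin B. Since plates varied, data were ranked per plate, and compounds giving the lowest OD600 advanced as hits.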

Tested on: Salmonella enterica serovar Typhimurium SL1344
Assay: bacterial growth OD600 after 18 h with compound and polymyxin B; higher = more bacterial growth (less inhibition)
Settings: 50 µM, Mueller-Hinton broth

| SMILES | bacterial growth OD600 (polymyxin B 1 µg/mL) | bacterial growth OD600 (polymyxin B 0.75 µg/mL) |
| --- | --- | --- |
| Cc1ccc(CN2CCN(Cc3ccccc3F)C(CCO)C2)cc1 (stereo not given) | 1 |  |
| O=C(Nc1ccnn1C1CCN(Cc2cc3ccccc3o2)CC1)c1ccccc1 | 0.821 |  |
| COc1ccc(-c2noc(CN3CCC(CCN4CCCC4=O)CC3)n2)cc1 | 0.858 |  |
| COc1cccc([C@@H](C)NC(=O)c2coc(COc3cccc(F)c3)n2)c1 | 0.81 |  |
| CCS(=O)(=O)c1ncc(CN(C)Cc2ccc(C)o2)n1Cc1ccccc1 |  | 0.763 |
| COC(=O)CCCNC(=O)c1csc2nc(-c3ccccc3OC)cn12 |  | 0.802 |
| CCOC(=O)C1CCN(C(=O)c2cn(C(C)C)cc(C(=O)NCC3CCCCC3)c2=O)CC1 |  | 0.917 |
| CCS(=O)(=O)Nc1cc(C(=O)N(C)CC(O)c2ccccc2)c2c(c1)nc(-c1ccccc1)n2C (stereo not given) |  | 0.806 |
| Cc1ccc(C)c(CN2CCN(Cc3ccc(C)o3)C(CCO)C2)c1 (stereo not given) | 0.951 |  |
| COc1ccc(CCN2C(=O)O[C@@H]3CN(C(=O)NC4CCCCC4)C[C@@H]32)cc1 | 0.84 |  |
| COc1cc(CC2(CCC(=O)NC(C)c3cnn(-c4ccccc4)c3)CCC(=O)N2)ccc1F (stereo not given) |  | 0.811 |
| CN(C(=O)c1cc(Cl)ccc1OC1CCN(C2CCCC2)CC1)C1CCOC1 (stereo not given) |  | 0.855 |
| O=C(NC1CCCCCC1)c1ccc(OC2CCN(C(=O)C3CC3)CC2)cc1 | 1 |  |
| O=C1N(Cc2ccc(F)cc2)CCCC1(O)CN1CCC2(CC1)OCCO2 (stereo not given) | 0.851 |  |
| COc1cccc(CN2Cc3ccccc3OC(C)C2)c1OC (stereo not given) |  | 0.886 |
| O=C1CCC(CCNCc2ccccc2F)N1CC1(N2CCOCC2)CCCCCC1 (stereo not given) |  | 0.779 |
| C[C@@H]1CN(C2(C(=O)NCCc3cn[nH]c3)Cc3ccccc3C2)C[C@H](C)O1 |  | 0.776 |
| COC(=O)C1CCN(C(=O)CC(c2ccccc2)c2ccc(OC)cc2)CC1 (stereo not given) | 0.558 |  |
| CCC1CN(CCC(=O)NC(c2ccncc2)c2ccccc2C)Cc2cc(OC)ccc2O1 (stereo not given) |  | 0.731 |
| CCOC(=O)C1(Cc2ccccc2F)CCCN(C(=O)c2cc(OC)cc(OC)c2)C1 (stereo not given) | -0.001 |  |
| COCCn1cnc2cc(NC(=O)C3CCCCC3)cc(C(=O)N(Cc3ccccc3)CC3CC3)c21 |  | 0.009 |
| COc1cc(CN2CCOc3ccc(C(O)Cc4ccccc4)cc3C2)cc(OC)c1OC (stereo not given) |  | 0.608 |
| CC(C)(O)C#Cc1ccc(CN2CCCC(CCC(=O)N3CCOCC3)C2)s1 (stereo not given) | 0.924 |  |
| O=C(CCN1Cc2ccccc2OC(c2ccccc2)C1)NCc1cc(-c2ccccc2)[nH]n1 (stereo not given) |  | -0.001 |
| Cc1nc(N2CCC(C(=O)N(C)Cc3cccc4ncccc34)CC2)nc2ccc(F)cc12 |  | 0.001 |
| COc1ccc(-c2cc(C)cc3c2OC(CNC(=O)C2=CCCCC2)C3)nn1 (stereo not given) |  | 0.005 |
| CCS(=O)(=O)c1ncc(CN2C[C@@H]3CCC[C@H]2C3)n1CCc1ccccc1 | 1.21 |  |
| COc1cccc(-c2cc(CC3(O)CCN(Cc4cnc(OC)nc4)CC3)on2)c1 | 0.954 |  |
| CC(C)N(Cc1nccn1C)C(=O)c1cc(Cn2ccc3ccccc32)[nH]n1 | 0.916 |  |
| Cc1ccccc1N1C(=O)CN(C(=O)C2COc3ccccc3O2)CC1C (stereo not given) |  | 0.823 |

Record cards, as listed above.
`COc1ccc(-c2cc(C)cc3c2OC(CNC(=O)C2=CCCCC2)C3)nn1` (stereo not given) as listed: bacterial growth OD600 (polymyxin B 0.75 µg/mL): 0.005
`Cc1ccc(C)c(CN2CCN(Cc3ccc(C)o3)C(CCO)C2)c1` (stereo not given) as listed: bacterial growth OD600 (polymyxin B 1 µg/mL): 0.951
